Data on one molecule can be found in publication PMC4070648.

Chains of the proteins cited; added tags and fusions are not shown.
UniProt Q460N5: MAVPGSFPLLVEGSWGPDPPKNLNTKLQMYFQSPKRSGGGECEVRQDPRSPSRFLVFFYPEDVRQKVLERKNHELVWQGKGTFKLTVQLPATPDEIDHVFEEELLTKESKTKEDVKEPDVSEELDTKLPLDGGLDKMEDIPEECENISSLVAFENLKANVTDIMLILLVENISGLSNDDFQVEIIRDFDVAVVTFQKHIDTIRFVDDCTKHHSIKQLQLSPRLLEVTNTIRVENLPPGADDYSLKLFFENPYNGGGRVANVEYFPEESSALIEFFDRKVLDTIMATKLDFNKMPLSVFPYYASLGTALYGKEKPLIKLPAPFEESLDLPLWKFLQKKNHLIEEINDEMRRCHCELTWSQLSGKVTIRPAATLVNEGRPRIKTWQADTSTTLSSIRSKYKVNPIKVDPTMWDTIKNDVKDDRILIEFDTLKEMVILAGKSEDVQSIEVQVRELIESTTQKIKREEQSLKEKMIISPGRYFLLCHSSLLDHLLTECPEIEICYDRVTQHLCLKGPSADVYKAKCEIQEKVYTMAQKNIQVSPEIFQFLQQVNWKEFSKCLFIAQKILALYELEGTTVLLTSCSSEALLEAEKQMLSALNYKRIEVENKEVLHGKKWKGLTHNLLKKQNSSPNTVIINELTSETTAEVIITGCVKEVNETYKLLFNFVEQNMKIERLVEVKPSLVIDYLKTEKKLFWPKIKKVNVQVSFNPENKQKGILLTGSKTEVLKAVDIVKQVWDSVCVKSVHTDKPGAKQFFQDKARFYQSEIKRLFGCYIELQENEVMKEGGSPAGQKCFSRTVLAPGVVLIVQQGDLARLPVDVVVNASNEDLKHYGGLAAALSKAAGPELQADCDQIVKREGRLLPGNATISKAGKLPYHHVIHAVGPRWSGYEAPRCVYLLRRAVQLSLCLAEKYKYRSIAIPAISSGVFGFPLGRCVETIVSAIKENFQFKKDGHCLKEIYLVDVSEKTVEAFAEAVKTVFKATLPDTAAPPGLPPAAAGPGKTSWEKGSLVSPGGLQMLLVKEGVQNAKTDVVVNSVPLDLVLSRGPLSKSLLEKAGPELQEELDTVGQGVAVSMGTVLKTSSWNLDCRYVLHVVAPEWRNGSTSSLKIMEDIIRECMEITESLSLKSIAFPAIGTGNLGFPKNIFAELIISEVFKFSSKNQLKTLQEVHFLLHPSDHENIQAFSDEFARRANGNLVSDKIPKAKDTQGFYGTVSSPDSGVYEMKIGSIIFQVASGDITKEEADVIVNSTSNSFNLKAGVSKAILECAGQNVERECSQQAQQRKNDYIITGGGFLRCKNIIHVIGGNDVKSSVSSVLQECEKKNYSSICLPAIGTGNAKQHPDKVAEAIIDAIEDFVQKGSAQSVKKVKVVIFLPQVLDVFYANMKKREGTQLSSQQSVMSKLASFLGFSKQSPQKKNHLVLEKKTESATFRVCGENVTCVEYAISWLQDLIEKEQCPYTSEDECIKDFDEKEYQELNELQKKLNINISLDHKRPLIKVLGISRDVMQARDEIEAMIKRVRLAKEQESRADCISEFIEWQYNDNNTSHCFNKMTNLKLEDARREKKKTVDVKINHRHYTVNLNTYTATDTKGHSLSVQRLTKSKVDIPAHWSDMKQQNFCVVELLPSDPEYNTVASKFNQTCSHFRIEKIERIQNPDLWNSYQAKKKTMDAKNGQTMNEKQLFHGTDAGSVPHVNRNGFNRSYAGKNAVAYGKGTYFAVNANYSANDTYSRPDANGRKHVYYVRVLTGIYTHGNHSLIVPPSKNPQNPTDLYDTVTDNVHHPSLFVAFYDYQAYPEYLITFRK

In test [1] the target is mono-ADP-ribosyltransferase ARTD8 (human (endogenous in PC3)) (UniProt Q460N5). The test can be described thus: co-IP; endogenous ARTD8 complexes precipitated from PC3 cell extracts with epitope affinity purified anti-ARTD8 antibodies; no ADP-ribose added; immunoblot. (In western blotting, separated proteins are transferred to a membrane and probed.)
Test [2] concerns the target diphtheria-toxin-like macrodomain containing ADP-ribosyltransferase-9 (ARTD9) (human (endogenous in PC3)) (UniProt Q8IXQ6). The experiment in a line: co-IP; endogenous ARTD9 complexes precipitated from PC3 cell extracts with anti-ARTD9 antibody covalently coupled to tosyl-activated Dynabeads; cells stimulated 1 h with IFNγ (200 U/ml) in Figure 2H and S5E; no ADP-ribose added; immunoblot.

Results are given in words; binding and its absence hold for the method and conditions named. In cells and extracts the contact can be indirect. Some entries that bind do so weakly or less than the wild type.

B1: ARTD10 (protein, UniProt Q53GL7 1-1025)
chain: MVAMAEAEAGVAVEVRGLPPAVPDELLTLYFENRRRSGGGPVLSWQRLGCGGVLTFREPADAERVLAQADHELHGAQLSLRPAPPRAPARLLLQGLPPGTTPQRLEQHVQALLRASGLPVQPCCALASPRPDRALVQLPKPLSEADVRVLEEQAQNLGLEGTLVSLARVPQARAVRVVGDGASVDLLLLELYLENERRSGGGPLEDLQRLPGPLGTVASFQQWQVAERVLQQEHRLQGSELSLVPHYDILEPEELAENTSGGDHPSTQGPRATKHALLRTGGLVTALQGAGTVTMGSGEEPGQSGASLRTGPMVQGRGIMTTGSGQEPGQSGTSLRTGPMGSLGQAEQVSSMPMGSLEHEGLVSLRPVGLQEQEGPMSLGPVGSAGPVETSKGLLGQEGLVEIAMDSPEQEGLVGPMEITMGSLEKAGPVSPGCVKLAGQEGLVEMVLLMEPGAMRFLQLYHEDLLAGLGDVALLPLEGPDMTGFRLCGAQASCQAAEEFLRSLLGSISCHVLCLEHPGSARFLLGPEGQHLLQGLEAQFQCVFGTERLATATLDTGLEEVDPTEALPVLPGNAHTLWTPDSTGGDQEDVSLEEVRELLATLEGLDLDGEDWLPRELEEEGPQEQPEEEVTPGHEEEEPVAPSTVAPRWLEEEAALQLALHRSLEPQGQVAEQEEAAALRQALTLSLLEQPPLEAEEPPDGGTDGKAQLVVHSAFEQDVEELDRALRAALEVHVQEETVGPWRRTLPAELRARLERCHGVSVALRGDCTILRGFGAHPARAARHLVALLAGPWDQSLAFPLAASGPTLAGQTLKGPWNNLERLAENTGEFQEVVRAFYDTLDAARSSIRVVRVERVSHPLLQQQYELYRERLLQRCERRPVEQVLYHGTTAPAVPDICAHGFNRSFCGRNATVYGKGVYFARRASLSVQDRYSPPNADGHKAVFVARVLTGDYGQGRRGLRAPPLRGPGHVLLRYDSAVDCICQPSIFVIFHDTQALPTHLITCEHVPRASPDDPSGLPGRSPDT
Turning to B1, the binding entry in test [1] and in test [2] was “binds” each time.
